These results are taken from article PMC7880690, “Chemical genetics and proteome-wide site mapping reveal cysteine MARylation by PARP-7 on immune-relevant protein targets” (eLife, 2021).

Amino acid sequences for entries named in this document (tags omitted). A change or cut given only in a name is not applied to a line headed by its entry. Chains listed by the source or under a name are the forms on record and can include a tag or linker.
MycX2-PARP-13.2 WT (Q7Z2W4-2, form named): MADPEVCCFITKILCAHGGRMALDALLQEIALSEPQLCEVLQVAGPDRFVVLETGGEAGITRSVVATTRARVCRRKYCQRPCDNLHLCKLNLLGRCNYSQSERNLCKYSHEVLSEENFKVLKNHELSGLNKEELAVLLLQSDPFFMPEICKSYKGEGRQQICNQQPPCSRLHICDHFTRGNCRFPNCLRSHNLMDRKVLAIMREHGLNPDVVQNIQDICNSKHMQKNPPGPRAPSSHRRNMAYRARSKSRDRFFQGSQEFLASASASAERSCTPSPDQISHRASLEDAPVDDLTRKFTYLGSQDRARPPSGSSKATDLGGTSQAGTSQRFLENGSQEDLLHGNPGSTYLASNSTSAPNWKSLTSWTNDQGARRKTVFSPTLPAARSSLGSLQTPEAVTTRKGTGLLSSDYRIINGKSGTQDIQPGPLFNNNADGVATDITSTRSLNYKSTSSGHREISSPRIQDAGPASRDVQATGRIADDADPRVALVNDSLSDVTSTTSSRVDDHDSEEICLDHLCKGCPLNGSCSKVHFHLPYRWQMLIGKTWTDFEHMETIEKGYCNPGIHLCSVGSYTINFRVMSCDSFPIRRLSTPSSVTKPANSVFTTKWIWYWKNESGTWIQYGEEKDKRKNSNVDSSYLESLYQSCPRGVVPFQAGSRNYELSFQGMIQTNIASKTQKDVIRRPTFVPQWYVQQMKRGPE

One assay deals with T1, GST-PARP-7 (UniProt Q7Z3E1).
T1 sequence: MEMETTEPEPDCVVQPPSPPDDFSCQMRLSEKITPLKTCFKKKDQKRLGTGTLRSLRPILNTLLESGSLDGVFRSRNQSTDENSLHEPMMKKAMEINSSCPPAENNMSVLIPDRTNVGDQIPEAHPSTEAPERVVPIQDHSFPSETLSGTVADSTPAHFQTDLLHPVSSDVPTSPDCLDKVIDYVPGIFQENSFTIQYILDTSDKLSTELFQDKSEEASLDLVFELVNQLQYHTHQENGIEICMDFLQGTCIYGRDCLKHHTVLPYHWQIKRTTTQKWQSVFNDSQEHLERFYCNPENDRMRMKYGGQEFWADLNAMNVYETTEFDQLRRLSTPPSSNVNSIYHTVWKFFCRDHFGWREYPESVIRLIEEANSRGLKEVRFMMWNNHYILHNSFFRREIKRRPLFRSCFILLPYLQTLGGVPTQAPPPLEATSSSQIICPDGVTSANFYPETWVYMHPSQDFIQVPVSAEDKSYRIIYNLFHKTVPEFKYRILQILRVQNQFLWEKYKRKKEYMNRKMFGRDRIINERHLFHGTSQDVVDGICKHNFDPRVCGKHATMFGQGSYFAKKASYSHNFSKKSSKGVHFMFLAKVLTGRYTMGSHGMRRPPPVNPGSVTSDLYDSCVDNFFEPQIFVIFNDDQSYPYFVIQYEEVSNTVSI
In words: pull-down; GST pulldown: His6-SUMO-PARP-13.2 (100 nM) and GST-PARP-7 (100 nM) in HRB (50 mM HEPES, 100 mM NaCl, 10 mM MgCl2, 0.5 mM TCEP) 1 hr at 4°C; then vehicle, NAD+ (100 μM), Phthal01 (1 μM) or NAD+ with Phthal01, 2 hr at 30°C; GSH-Sepharose; washes with HRB with 1 mM EDTA; Western blot for ADPr, GST, His6; both purified.

A further assay has as its target T2, GFP-WT-PARP-7 (UniProt Q7Z3E1).
T2 sequence: T1 sequence
Put plainly: co-IP; MycX2-PARP-13.2 WT or ZnF domain mutants co-expressed with GFP-PARP-7 or GFP empty vector in HEK 293T cells; GFP-PARP-7 immunoprecipitated with GFP-nanobody magnetic beads (Chromotek); Western blot for ADPr, GFP, Myc, actin. (In general: In western blotting, separated proteins are transferred to a membrane and probed.)

These are yes or no findings as the source states them, for the method shown. For some assays here: In cells and extracts the contact can be indirect. Some entries that bind do so weakly or less than the wild type. Tags and fused reporters may be left off the sequences shown.

Consider “His6-SUMO-PARP-13.2 (from UniProt Q7Z2W4-2 1-699)”, for which the binding entry in the assay with GST-PARP-7 is on record as “binds”.
In the case of “MycX2-PARP-13.2 WT (from UniProt Q7Z2W4-2 1-699)”, the binding entry with GFP-WT-PARP-7 was “binds”.
